Some of the results follow. The main result of the screen is listed elsewhere. These columns were measured beside it and carry no call. The list favours compounds with an active or inconclusive main result.

The assay in a line: hepatocyte lipid droplet accumulation inhibitors, confirmation, imaging, AML12 mouse hepatocytes, single concentration, high-content (AID 463183).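 Also: cells counted after overnight compound exposure.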 The settings on record: BODIPY lipid droplet imaging, measured here: cell count, cytotoxicity, at 5.2 µM, droplets induced with 100 µM oleic acid.
Consider `COc1cccc(N2CCN(CC(=O)Nc3nnc(-c4ccccc4)s3)CC2)c1`, for which the cell count came out at 1560 cells.

In the case of `COc1ccc(CCNC(=O)Cc2cccc(C(F)(F)F)c2)cc1OC`, the cell count was 1710 cells.

Take `Cc1cc(-n2cnnn2)cc(C)c1S(=O)(=O)NCCOc1ccccc1`: the cell count is 1600 cells.

The compound `COc1ccc(Cl)cc1CNCCCSc1ncccn1` displayed a cell count of 1580 cells.

On to `Cc1cc(O)c(C)c(O)c1/C=N/NC(=O)c1cccnc1`, for which the cell count worked out at 1640 cells.

For `CCOc1ccc(CCNC(=O)CN2C(=O)c3cccnc3Oc3ccc(C)cc32)cc1OCC`, the cell count worked out at 1650 cells.

The compound `Cc1cc(N2CCOCC2)n2nc(C)c(-c3ccc(Cl)cc3)c2n1` yielded a cell count of 1550 cells.

`O=C(NCCc1cccnc1)c1cc(COc2ccc(F)cc2F)on1` came in with a cell count of 1660 cells.

`CCc1ccc(NC(=O)CSc2nnc(C)c(=O)n2N)cc1` yielded a cell count of 1490 cells.

`CCOc1ccccc1NC(=O)CSCC(=O)Nc1ccccc1` yielded a cell count of 1590 cells.

Turning to `Cc1ccc(C)c(C(=O)N2CCN(c3ncccn3)CC2)c1`, the cell count was determined as 1500 cells.

In turn, `COc1ccc(CNC(=O)CN2C(=O)NC(C)(c3cccc4ccccc34)C2=O)cc1OC` (centres undefined) came in with a cell count of 1650 cells.

The compound `COc1ccc(C(=O)Nc2sc3c(c2C(=O)NCc2ccco2)CCCC3)cc1OC` registered a cell count of 1580 cells.

`Cc1cccc(NC(=O)Cn2cc(C(=O)C3CC3)c3ccccc32)c1` yielded a cell count of 1620 cells.

Regarding `COc1ccc(Cl)c(NC(=O)C/C(C)=N/NC(=O)CCc2ccccc2)c1`, the cell count came out at 1600 cells.

Consider `CC(C)C(=O)N(Nc1nc2ccccc2s1)C(=O)C(C)C`, for which the cell count stood at 1600 cells.

Compound `COc1cccc(C(=O)NC2CCCc3c2cnn3-c2cc(C)cc(C)c2)c1` (centres undefined) gave a cell count of 1610 cells.

Consider `CC1CC(C)CN(C(=O)CSCC(=O)Nc2nc(-c3cccs3)cs2)C1` (centres undefined), for which the cell count stood at 1540 cells.

Regarding `COc1cc(C2N3CC4(C)CN2CC(C)(C3)C4)ccc1O` (centres undefined), the cell count turned out to be 1690 cells.

Regarding `COc1ccc(C)cc1NC(=O)C/C(C)=N/NC(=O)Cc1cccc2ccccc12`, the cell count was found to be 1710 cells.

On to `CCOc1ccc(CCNC(=O)Cn2c(-c3nonc3N)nc3ccccc32)cc1OCC`, for which the cell count was found to be 1560 cells.

For the compound `COc1ccc(N(Cc2cc(=O)[nH]c3ccccc23)C(C)=O)cc1`, the cell count was determined as 1690 cells.

`Cc1ccc(-c2cc(C(=O)NC3=NCCS3)c3cc(Br)ccc3n2)o1` came in with a cell count of 1550 cells.

Take `Nc1nc(-c2ccccc2)c(N=Nc2ccccc2Cl)s1`: the cell count was determined as 1590 cells.

With `COc1ccc2c(c1)c(CC(=O)Nc1ccc(C(C)=O)cc1)c(C)n2C(=O)c1ccc(Cl)cc1`, the cell count was 1640 cells.

The compound `C/C(=N\Nc1ccc(S(=O)(=O)Nc2ccccc2)cc1[N+](=O)[O-])c1ccc(N2CCOCC2)cc1` had a cell count of 1690 cells.

In turn, `CCOC(=O)/C(C(=O)Nc1ccccc1Cl)=C1/NC(C)(C)Cc2ccccc21` showed a cell count of 1530 cells.

As to `Cc1ccccc1OCc1n(CC(=O)OC2CC(C)CCC2C(C)C)c2ccccc2[n+]1C` (centres undefined), the cell count came to 1610 cells.

Turning to `Cc1oc2c(cc(NS(=O)(=O)c3cccs3)c3ccccc32)c1C(=O)OC(C)C`, the cell count was 1590 cells.

The compound `CC1Cc2cc(S(=O)(=O)NCCC(=O)N(C)Cc3ccccc3)ccc2N1C(=O)C1CC1` (centres undefined) displayed a cell count of 1560 cells.

For the compound `COc1ccc(CNC(=O)N2CCN(S(=O)(=O)c3ccc(C)cc3C)CC2)cc1`, the cell count is 1600 cells.

In the case of `Cc1cc(C)cc(NC(=O)CSc2nc3ccccc3nc2N2CCCC2)c1`, the cell count is 1590 cells.

Turning to `Cc1cccc(NC(=O)CSc2nc3ccccc3nc2N2CCCC2)c1`, the cell count is 1490 cells.

Regarding `CCC(C)(C)NC(=O)C(c1ccc(OC)cc1)N(Cc1cccs1)C(=O)CCC(=O)Nc1cc(C)on1` (centres undefined), the cell count is 1590 cells.

`O=C(COc1ccc(Cl)cc1)Nc1ccc2c(c1)C(=O)NC2=O` returned a cell count of 1550 cells.

For the compound `CCCCOc1ccccc1C(=O)N(Cc1ccco1)C1CCS(=O)(=O)C1` (centres undefined), the cell count was determined as 1580 cells.

For `O=C(CCNC(=O)C1CCN(S(=O)(=O)c2ccccc2)CC1)NCc1ccc(Cl)cc1Cl`, the cell count worked out at 1630 cells.

`COc1cccc(-c2cc(C(=O)Nc3ccc([N+](=O)[O-])cn3)c3ccccc3n2)c1` came in with a cell count of 1580 cells.

Turning to `Nc1nc(-c2ccccc2)c(N=Nc2cccc3ccccc23)s1`, the cell count was determined as 1610 cells.

The record behind these values is PubChem BioAssay AID463183 (Sanford-Burnham Center for Chemical Genomics, 2010).
